# Data: article PMC10163288
# This is one part of the list.
# B1: il10ra_site1_normal_mot_HHH_b1_00999_000000080_0001_41_55_H_._HHH_b1_02251_0001_0000200023_0000002_0 (protein)
# chain: SSSSDEEEERIEKLLEEVEELRKEGDEEEAFRLLQEAVRLAYELQDAELLREIWELVREIGSSSS
# B2: il10ra_site1_sap_16_mot_HHH_b2_03220_af2_000000223_0001_23_40_H_._HHH_b2_07861_0001_0000300037_0000002_0_0001 (protein)
# chain: SSSSSVEELLEELRELRHKVDEELEEYIERTLRFARALLKDGNPEAAETLLRLAIDSVKGSSSSS
# B3: il10ra_site1_normal_mot_a6c796b944619e241e020fd597ddb6da_0001_af2_000000092_0001_15_31_H_._HHH_b2_01641_0001_0000200011_0000001_1_af2pred_0001 (protein)
# chain: SSSSDEEARDILKALLYAAKLSENERAARNAVLRALELAKEEGDEELLEEIERLLEELENSSSSS
# B4: il10ra_site1_sap_10_mot_HHH_b2_00277_af2_000000172_0001_1_17_H_._HHH_b2_00266_0001_0000100001_0000002_0_0001_af2pred_0001 (protein)
# chain: SSSSSDAEEEVKELLEEAEQVEDPHEFAELAAKALRLAAEANDDELFREILKVIIEFRRSSSSSS
# B5: il10ra_site1_normal_mot_HHH_b1_00999_000000080_0001_41_55_H_._HHH_b2_01341_0001_0000100004_0000001_0 (protein)
# chain: SSSSDVEERVRELLEEAEEAAERGNPEEAARLLQEAVRLAYERQDQELLREVWEVVRRIGNSSSS
# B6: il10ra_site1_normal_mot_HHH_b1_06789_af2_000000041_0001_1_20_H_._HHH_b2_03753_0001_0000100002_0000002_0 (protein)
# chain: SSSSSARYLVEQALKAAELLYKQGDEEEAERAAEIAVLIARQAGDEELLEEVEKFLKELRSSSSS
# B7: il10ra_site1_sap_25_mot_HHH_b1_05670_af2_000000039_0001_1_19_H_._HHH_b1_08315_0001_0000600031_0000001_0_0001 (protein)
# chain: SSSDQEMRELARAALRQVEQMHELNDPEAIRFMLIALEVLYERLGDPELKEIYEEAEELLGSSSS
# B8: il10ra_site1_normal_mot_HHH_b2_01310_000000089_0001_41_55_H_._HHH_b2_00697_0001_0000400036_0000001_0_af2pred_dldesign_0_af2pred (protein)
# chain: SSSSSEAELEALRARVEALLEAGKPEEAVELVRKLAREAFESNDAEKLALAVELAKLIEESSSSS
# B9: il10ra_site1_sap_20_mot_HHH_b1_06031_000000025_0001_40_54_H_._HHH_b2_04713_0001_0000300027_0000001_0_0001 (protein)
# chain: SSSSDEAKELAEEVIEELEELQKRGNHDEVYELIEEAIKLLHELNDPEAVRLLMEFLRELFSSSS
# B10: il10ra_site1_normal_mot_HHH_b1_08622_000000192_0001_23_40_H_._HHH_b1_02232_0001_0000100022_0000002_0 (protein)
# chain: SSSSSAIERAVRLLLEAAKELYELGDEERAREVLEILLRYAEQSNDEEAERLIQELLEELSSSSS
# Target: il10ra, Q13651
# Experiment: yeast display titration
row,Binder,apparent Kd
1,B1,inactive: no binding seen
2,B2,inactive: no binding seen
3,B3,inactive: no binding seen
4,B4,inactive: no binding seen
5,B5,inactive: no binding seen
6,B6,inactive: no binding seen
7,B7,inactive: no binding seen
8,B8,inactive: no binding seen
9,B9,inactive: no binding seen
10,B10,inactive: no binding seen
